For assay [1], the target named is TANGLED1 amino acids 1-132 (TAN1_(1-132)) in pAS (Arabidopsis) (UniProt Q84M91). The assay can be described thus: two-hybrid.
The target of assay [2] is TANGLED1 (TAN1) in pBD (Arabidopsis) (UniProt Q84M91). The assay can be described thus: two-hybrid.

Chains of the proteins cited; added tags and fusions are not shown. Lines headed by an entry give the natural chain unless they say otherwise; changes in a name come on top.
UniProt Q84M91: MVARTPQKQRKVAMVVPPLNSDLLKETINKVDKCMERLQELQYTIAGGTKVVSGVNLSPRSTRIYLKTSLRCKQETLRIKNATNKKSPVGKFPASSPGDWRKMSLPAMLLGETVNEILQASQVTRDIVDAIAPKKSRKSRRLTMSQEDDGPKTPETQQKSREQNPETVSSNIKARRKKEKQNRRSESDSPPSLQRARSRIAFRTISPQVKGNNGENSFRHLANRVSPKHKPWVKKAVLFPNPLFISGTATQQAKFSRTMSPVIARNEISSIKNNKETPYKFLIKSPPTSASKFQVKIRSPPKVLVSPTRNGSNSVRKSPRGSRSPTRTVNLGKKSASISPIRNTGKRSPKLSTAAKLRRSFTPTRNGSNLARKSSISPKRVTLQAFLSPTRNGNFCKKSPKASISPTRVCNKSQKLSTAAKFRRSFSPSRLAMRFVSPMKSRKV

These are yes or no findings as the source states them, for the method shown. Binding can be weak; no strength is given.

B1: PHRAGMOPLAST ORIENTING KINESIN1 (POK1), C-terminal amino acids 1683-2066, in pAD (domain or fragment, UniProt Q27IK7 1683-2066)
chain: DMDEEVKRHRTTQDSLETELQALRQRLFRFENFTGTMVTTNESTEEYKSHISRSTGLQGAHSQIQVLQKEVAEQTKEIKQLKEYISEILLHSEAQSSAYQEKYKTLEVMIRDFKLEDSSSSAAETISHKTEKSSTRSRGSSSPFRCIVGLVQQMKLEKDQELTMARVRVEELESLLAVKQKEICTLNTRIAAADSMTHDVIRDLLGVKMDITSYAELIDQHQVQRVVEKAQQHAEEILSKEQEVMNLKRHIDYLFKDRESCMSELNKKDTDVLATQISLDQLQERVQLLSMQNEMLKNDKSNLLRKLAELDRTVHNAQASNHRVPQTTKDTASFKLADTDYTKRLENAQKLLSHANNELAKYRKTSNNHPSTRTQGQSSGTRYR
B1: the binding result in assay [1] and in assay [2] was “binds” each time.

The values are drawn from publication doi:10.1101/2021.04.30.442137.
